Results taken from US5789163.
The exact form of at least one protein or probe is not confirmed.

Chains of the proteins cited; added tags and fusions are not shown. Chains listed by the source or under a name are the forms on record and can include a tag or linker.
VEGF (vascular endothelial growth factor) (Homo sapiens), one chain, as listed by the source: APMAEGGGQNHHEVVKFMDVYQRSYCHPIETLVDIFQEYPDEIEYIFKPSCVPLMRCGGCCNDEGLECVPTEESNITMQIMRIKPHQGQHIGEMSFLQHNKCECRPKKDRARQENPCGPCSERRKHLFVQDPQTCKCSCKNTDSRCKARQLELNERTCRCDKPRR

System: VEGF (vascular endothelial growth factor) (Homo sapiens)
Assay: binding assay
Settings: 2'-NH2 pyrimidines; CITED Jellinek et al. 1994 Biochemistry 33:10450; SELEX-derived VEGF oligonucleotide, identity with SEQ 1 not explicit; purified recombinant protein; protein details: R&D Systems recombinant human VEGF; label: 3'-biotin

ACCCUGAUGGUAGACGCCGGG [VEGF-NeXamer]
Kd: 10 nM
